For the assay, the target named is YL1 (H2A.Z chaperone, subunit of the SRCAP complex) (mouse (endogenous in intestinal crypts and organoids)) (UniProt Q62481). The assay can be described thus: co-IP; anti-YL1 immunoprecipitation from lysate of wild-type or control (+/+) mouse intestinal crypts, immunoblotting for p-Akt, H2A.Z, Znhit1. For orientation: Immunoblotting shows a protein as a band on a membrane.

Sequences of proteins named here, by UniProt entry; tags and fusion partners are left off. A change or cut given only in a name is not applied to a line headed by its entry.
UniProt Q62481: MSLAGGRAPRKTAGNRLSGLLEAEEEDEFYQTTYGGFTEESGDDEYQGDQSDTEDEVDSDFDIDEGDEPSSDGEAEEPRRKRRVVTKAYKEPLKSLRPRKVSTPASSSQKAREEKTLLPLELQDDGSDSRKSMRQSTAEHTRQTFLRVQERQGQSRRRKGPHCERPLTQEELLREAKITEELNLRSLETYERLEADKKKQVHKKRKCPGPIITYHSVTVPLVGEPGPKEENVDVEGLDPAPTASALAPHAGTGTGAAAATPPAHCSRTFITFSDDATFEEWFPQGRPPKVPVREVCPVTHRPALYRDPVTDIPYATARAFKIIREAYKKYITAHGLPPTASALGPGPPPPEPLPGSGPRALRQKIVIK

No constants are given. Whether binding was seen depends on the method and setting. In cells and extracts the contact can be indirect. Some entries that bind do so weakly or less than the wild type.

B1: Zinc finger HIT-type containing 1 (Znhit1) (protein, UniProt Q8R331 1-154)
chain: MVEKKPAVRSQDPGQRRVLDRAARQRRINRQLEALENDNFQDDPHAGLPQLGKRLPQFDDDADTGKKKKKTRGDHFKLRFRKNFQALLEEQNLSASEGPNYLTACAGPPSRPQRPFCAVCGFPSPYTCVSCGARYCTVRCLGTHQETRCLKWTV
As to B1, the binding entry is “binds”.

The values above are taken from paper PMC6403214.
